In publication PMC11300919:
These are yes or no findings as the source states them, for the method shown. In cells and extracts the contact can be indirect.

Chains of the proteins cited; added tags and fusions are not shown. Residues count along the entry.
UniProt P16056, residues 25-931: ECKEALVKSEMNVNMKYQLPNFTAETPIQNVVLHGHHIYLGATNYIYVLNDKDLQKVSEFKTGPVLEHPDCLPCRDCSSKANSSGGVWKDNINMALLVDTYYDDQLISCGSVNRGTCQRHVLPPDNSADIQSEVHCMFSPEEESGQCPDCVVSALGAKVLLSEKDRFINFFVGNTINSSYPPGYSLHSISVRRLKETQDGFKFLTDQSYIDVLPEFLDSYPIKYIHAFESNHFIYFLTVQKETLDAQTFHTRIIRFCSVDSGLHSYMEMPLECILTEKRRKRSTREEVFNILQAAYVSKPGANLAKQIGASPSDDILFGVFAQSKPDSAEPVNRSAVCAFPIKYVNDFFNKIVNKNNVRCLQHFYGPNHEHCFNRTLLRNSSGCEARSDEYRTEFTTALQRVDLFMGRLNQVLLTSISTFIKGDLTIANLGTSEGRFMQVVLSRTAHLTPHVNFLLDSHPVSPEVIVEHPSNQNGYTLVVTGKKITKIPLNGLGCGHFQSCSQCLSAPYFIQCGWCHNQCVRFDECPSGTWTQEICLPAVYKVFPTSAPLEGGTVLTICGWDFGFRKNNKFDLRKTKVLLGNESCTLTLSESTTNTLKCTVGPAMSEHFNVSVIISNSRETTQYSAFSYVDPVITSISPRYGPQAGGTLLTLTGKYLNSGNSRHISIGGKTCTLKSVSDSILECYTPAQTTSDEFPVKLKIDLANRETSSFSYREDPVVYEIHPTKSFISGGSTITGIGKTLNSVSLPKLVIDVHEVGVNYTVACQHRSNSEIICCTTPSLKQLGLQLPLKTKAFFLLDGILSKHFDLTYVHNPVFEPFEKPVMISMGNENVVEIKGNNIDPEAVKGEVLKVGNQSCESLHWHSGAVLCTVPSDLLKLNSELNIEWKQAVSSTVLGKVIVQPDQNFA

Biological target: soluble ectodomain fragment of mouse Met (residues 1-931) C-terminally fused with PA-tag (mouse) (UniProt P16056)
Assay: pull-down; mouse Met ectodomain (1-931)-PA captured on beads with anti-PA antibody NZ-1, briefly washed; incubated with culture supernatants containing peptide-grafted Fc variants; elution with SDS buffer, SDS-PAGE, band intensity; only the target purified

Question: With “control Fc protein (from UniProt P01857 104-330) (domain or fragment)” as the substance, how does the binding read?
Answer: no binding
